# These are yes or no findings as the source states them, for the method shown. Some results given as binding are weak or reduced against the parent protein; the word gives no strength.
# Protein sequences, listed by entry. Tags and fused reporters are not part of them. Residues count along the entry.
# UniProt P24821, residues 23-2201: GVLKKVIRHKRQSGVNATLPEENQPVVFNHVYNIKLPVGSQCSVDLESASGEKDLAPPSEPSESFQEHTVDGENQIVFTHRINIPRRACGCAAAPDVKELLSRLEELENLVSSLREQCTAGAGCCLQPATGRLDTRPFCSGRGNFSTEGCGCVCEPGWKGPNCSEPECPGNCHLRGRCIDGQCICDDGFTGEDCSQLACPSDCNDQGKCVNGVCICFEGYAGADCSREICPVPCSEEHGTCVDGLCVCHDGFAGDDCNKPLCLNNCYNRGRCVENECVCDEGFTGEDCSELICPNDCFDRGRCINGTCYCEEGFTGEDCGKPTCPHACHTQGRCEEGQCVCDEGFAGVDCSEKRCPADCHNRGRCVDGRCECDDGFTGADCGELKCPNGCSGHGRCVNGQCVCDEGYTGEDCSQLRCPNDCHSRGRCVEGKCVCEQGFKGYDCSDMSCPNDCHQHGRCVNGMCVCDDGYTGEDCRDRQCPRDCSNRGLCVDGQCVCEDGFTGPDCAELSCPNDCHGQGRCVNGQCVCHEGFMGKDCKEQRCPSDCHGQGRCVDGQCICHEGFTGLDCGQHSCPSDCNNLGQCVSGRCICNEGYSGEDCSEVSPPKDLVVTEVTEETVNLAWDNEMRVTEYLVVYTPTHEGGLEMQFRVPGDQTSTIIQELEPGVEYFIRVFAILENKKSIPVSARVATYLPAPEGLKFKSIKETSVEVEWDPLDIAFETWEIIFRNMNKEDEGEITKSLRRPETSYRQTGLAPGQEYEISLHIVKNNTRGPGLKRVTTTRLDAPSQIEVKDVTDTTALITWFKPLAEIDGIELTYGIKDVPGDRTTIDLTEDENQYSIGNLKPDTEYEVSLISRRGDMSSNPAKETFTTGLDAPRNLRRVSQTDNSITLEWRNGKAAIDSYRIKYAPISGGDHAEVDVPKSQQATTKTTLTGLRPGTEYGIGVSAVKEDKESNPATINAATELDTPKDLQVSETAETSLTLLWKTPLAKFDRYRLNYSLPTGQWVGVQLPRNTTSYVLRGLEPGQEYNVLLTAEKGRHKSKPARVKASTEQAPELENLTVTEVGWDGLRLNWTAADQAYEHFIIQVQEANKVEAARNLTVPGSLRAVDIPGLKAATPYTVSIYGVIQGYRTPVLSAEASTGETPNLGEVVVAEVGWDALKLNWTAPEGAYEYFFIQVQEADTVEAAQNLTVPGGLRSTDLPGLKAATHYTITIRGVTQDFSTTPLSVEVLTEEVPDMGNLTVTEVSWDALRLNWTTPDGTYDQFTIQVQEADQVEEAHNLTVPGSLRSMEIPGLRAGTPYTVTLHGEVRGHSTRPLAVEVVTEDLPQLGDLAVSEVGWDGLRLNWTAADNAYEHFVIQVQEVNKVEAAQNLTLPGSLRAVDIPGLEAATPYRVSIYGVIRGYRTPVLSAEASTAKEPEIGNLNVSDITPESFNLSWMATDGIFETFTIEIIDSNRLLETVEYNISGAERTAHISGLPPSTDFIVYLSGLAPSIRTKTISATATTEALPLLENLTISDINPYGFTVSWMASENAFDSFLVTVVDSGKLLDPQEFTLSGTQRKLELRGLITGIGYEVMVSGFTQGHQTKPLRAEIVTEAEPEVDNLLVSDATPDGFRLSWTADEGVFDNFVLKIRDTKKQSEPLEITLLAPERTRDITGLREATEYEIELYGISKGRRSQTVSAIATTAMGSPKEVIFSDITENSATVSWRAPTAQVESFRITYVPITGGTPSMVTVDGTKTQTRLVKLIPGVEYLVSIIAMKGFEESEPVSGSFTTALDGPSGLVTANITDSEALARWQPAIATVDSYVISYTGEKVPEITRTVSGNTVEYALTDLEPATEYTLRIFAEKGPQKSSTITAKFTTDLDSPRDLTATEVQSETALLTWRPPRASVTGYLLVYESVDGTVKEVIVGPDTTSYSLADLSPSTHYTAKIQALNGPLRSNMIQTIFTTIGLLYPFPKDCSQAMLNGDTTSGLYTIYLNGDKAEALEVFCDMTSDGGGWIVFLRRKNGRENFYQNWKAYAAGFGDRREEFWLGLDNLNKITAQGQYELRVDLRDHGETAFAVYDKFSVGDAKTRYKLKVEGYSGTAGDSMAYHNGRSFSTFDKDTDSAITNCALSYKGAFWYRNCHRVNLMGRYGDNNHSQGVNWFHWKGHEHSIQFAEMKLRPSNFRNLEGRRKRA
# B1: Recombinant Wnt-2 (Biomatik) (ligand, UniProt P09544 26-360)
# chain: SWWYMRATGGSSRVMCDNVPGLVSSQRQLCHRHPDVMRAISQGVAEWTAECQHQFRQHRWNCNTLDRDHSLFGRVLLRSSRESAFVYAISSAGVVFAITRACSQGEVKSCSCDPKKMGSAKDSKGIFDWGGCSDNIDYGIKFARAFVDAKERKGKDARALMNLHNNRAGRKAVKRFLKQECKCHGVSGSCTLRTCWLAMADFRKTGDYLWRKYNGAIQVVMNQDGTGFTVANERFKKPTKNDLVYFENSPDYCIRDREAGSLGTAGRVCNLTSRGMDSCEVMCCGRGYDTSHVTRMTKCGCKFHWCCAVRCQDCLEALDVHTCKAPKNADWTTAT
# Biological target: Recombinant Tenascin-C (EMD Millipore) (UniProt P24821)
# Assay: co-IP; recombinant TNC (methods: 1 µg in 1 mL; legend: 0.1 mg/mL) and several concentrations of recombinant Wnt-2 in NDLB (50 mM Tris-HCl pH 7.4, 300 mM NaCl, 5 mM EDTA, 1% Triton X-100), TNC antibody overnight at 4 °C, Protein A/G magnetic beads, 5 washes; immunoblot for Wnt-2; both purified
binder,measurement,value
B1,binding,binds
